Results from the supplement of paper PMC10849652.
The list shows a part of the results.

Chains of the proteins cited; added tags and fusions are not shown. Lines headed by an entry give the natural chain unless they say otherwise; changes in a name come on top.
UniProt Q6PCD5: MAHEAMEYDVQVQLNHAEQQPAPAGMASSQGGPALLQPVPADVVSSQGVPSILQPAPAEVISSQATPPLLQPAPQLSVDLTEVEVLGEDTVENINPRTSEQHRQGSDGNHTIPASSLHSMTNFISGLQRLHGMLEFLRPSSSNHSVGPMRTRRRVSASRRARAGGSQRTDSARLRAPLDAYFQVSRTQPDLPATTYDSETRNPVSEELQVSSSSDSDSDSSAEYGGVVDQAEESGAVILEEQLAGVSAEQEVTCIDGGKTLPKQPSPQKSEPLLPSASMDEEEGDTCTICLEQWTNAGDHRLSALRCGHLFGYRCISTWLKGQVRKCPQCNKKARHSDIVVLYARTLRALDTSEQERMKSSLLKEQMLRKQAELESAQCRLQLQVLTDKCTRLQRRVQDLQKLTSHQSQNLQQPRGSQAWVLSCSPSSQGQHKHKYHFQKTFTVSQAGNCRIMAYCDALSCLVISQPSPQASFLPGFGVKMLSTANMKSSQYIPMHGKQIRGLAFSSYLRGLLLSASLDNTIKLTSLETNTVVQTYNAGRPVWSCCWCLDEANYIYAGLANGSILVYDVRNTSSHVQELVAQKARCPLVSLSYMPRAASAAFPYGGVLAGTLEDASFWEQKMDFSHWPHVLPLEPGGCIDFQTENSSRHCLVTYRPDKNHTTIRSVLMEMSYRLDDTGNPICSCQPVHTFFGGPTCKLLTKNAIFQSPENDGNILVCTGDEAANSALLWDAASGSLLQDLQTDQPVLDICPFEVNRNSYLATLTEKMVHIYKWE
UniProt O43567: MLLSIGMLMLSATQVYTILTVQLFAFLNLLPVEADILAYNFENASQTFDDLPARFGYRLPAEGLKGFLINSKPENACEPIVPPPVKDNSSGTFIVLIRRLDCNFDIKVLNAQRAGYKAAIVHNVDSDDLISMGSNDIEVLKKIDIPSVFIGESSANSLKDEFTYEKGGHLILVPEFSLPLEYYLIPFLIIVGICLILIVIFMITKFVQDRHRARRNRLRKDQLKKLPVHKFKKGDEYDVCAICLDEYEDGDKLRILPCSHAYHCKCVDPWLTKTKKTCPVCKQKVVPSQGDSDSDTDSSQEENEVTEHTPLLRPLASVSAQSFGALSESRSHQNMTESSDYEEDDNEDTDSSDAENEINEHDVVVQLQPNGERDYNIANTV
UniProt Q96LZ7: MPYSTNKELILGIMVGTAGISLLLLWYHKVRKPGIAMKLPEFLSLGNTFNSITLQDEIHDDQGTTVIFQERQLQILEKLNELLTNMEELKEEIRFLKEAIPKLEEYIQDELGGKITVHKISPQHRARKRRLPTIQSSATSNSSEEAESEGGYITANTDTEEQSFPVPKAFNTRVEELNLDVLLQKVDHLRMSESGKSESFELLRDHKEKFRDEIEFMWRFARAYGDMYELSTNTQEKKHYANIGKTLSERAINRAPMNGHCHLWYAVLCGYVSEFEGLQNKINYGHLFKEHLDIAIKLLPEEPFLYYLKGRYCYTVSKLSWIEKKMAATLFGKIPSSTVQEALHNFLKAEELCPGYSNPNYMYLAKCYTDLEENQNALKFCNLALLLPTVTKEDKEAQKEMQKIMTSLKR
UniProt Q15493: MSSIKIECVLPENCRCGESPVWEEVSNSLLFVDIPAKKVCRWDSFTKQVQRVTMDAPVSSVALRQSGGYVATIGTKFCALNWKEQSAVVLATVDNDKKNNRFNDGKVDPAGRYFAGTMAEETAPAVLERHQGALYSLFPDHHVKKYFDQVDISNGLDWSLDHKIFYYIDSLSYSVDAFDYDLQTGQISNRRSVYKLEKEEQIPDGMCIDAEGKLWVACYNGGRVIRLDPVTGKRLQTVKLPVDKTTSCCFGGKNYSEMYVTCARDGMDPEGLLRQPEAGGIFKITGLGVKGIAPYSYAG
UniProt P78332: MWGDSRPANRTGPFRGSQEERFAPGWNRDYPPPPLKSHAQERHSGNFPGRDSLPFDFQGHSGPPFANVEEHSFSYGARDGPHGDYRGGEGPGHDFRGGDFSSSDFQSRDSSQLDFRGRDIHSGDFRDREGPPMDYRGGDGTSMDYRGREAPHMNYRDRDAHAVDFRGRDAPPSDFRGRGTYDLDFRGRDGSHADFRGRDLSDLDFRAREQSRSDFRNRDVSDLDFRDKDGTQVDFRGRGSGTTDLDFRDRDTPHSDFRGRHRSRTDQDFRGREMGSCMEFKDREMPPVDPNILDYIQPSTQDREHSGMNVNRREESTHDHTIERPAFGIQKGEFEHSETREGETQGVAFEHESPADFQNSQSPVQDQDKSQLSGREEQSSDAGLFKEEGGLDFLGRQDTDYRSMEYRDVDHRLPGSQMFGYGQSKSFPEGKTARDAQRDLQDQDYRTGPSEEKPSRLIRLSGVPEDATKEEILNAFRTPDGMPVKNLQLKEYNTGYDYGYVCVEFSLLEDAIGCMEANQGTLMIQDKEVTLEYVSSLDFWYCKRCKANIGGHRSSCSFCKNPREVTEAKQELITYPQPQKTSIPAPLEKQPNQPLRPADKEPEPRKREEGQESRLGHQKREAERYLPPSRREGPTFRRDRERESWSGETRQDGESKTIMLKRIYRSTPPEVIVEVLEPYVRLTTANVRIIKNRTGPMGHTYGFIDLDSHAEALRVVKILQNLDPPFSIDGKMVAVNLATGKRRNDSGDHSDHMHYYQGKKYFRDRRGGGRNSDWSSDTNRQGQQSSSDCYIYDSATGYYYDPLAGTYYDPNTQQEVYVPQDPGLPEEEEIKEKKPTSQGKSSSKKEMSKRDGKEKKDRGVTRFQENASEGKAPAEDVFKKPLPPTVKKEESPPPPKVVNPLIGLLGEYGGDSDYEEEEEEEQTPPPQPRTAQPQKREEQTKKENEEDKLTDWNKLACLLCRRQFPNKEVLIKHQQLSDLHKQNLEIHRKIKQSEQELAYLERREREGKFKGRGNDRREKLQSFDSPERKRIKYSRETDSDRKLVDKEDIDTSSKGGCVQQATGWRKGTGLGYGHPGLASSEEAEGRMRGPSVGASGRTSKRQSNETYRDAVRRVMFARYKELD
UniProt Q9Y3C5: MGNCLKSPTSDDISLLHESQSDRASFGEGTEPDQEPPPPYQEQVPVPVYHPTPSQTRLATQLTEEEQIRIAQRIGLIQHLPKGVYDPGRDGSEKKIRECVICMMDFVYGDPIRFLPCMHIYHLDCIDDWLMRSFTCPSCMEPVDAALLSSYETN
UniProt A6NEQ0: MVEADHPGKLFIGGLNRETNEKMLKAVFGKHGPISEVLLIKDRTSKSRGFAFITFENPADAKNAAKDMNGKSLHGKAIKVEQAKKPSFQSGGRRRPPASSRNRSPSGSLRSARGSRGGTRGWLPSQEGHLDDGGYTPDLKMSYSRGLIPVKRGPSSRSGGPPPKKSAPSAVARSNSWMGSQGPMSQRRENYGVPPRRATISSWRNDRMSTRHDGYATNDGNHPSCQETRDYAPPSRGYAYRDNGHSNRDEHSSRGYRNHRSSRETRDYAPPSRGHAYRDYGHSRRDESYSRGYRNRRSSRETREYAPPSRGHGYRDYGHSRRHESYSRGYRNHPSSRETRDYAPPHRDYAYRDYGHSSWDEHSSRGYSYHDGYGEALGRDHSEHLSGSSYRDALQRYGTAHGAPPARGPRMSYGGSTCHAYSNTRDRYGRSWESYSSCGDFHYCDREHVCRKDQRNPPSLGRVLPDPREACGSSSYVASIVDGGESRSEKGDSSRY
UniProt Q9H4X1: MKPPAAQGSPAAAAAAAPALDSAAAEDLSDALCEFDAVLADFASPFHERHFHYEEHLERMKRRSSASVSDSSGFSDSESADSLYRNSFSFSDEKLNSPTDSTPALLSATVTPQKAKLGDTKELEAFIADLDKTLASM
UniProt Q86XS8: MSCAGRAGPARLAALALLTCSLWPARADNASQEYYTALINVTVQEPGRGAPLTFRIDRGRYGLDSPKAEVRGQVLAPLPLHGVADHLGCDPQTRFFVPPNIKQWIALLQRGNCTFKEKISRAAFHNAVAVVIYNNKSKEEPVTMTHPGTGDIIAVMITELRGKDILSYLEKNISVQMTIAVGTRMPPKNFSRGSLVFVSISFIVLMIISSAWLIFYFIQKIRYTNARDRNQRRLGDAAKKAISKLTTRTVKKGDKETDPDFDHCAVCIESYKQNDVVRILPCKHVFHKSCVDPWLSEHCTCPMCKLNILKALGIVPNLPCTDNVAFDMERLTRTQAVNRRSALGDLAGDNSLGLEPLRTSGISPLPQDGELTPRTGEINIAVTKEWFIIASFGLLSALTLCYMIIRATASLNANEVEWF
UniProt Q6NTF9: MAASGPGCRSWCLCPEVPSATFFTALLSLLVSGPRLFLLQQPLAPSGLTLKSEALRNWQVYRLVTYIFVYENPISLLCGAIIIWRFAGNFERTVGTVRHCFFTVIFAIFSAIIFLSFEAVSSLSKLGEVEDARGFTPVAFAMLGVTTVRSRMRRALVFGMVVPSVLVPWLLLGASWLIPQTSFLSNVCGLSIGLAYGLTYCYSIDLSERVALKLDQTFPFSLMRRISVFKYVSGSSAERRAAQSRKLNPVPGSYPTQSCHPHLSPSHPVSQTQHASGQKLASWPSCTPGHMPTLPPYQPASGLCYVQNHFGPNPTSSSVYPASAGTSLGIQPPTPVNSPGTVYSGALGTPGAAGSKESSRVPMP
UniProt P0C7M4: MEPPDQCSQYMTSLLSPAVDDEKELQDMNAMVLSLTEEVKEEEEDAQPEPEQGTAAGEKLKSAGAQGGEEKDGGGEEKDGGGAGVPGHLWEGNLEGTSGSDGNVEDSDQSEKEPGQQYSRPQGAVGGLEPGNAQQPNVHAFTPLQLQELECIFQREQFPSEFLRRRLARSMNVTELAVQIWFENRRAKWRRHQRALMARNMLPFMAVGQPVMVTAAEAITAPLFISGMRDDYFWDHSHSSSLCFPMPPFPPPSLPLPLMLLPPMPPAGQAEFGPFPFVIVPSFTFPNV
UniProt O94762: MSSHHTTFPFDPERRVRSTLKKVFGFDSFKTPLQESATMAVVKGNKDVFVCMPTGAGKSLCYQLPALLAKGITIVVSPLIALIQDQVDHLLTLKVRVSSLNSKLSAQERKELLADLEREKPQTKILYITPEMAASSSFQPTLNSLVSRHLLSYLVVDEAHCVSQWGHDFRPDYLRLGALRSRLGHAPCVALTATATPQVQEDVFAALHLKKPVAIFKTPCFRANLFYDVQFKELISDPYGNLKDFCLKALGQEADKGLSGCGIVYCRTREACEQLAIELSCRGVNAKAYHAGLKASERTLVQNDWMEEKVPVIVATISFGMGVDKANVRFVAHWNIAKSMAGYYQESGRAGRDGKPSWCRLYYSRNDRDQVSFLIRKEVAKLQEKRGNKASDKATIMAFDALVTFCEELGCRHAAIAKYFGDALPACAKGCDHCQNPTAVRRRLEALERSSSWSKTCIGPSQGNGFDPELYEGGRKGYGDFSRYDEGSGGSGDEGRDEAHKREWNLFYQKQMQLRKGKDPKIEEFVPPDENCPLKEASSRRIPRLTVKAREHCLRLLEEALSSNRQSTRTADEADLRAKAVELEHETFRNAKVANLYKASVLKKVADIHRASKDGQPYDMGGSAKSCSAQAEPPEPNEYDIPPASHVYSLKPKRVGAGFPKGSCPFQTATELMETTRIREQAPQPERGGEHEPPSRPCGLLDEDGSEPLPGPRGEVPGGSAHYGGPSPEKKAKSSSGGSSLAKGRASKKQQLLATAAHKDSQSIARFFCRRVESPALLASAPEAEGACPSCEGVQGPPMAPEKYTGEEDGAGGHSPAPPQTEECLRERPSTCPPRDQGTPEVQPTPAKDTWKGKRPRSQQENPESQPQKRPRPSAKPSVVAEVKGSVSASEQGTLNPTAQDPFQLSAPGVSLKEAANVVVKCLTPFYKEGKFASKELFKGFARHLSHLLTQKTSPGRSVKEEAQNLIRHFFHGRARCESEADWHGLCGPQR
UniProt Q969X0: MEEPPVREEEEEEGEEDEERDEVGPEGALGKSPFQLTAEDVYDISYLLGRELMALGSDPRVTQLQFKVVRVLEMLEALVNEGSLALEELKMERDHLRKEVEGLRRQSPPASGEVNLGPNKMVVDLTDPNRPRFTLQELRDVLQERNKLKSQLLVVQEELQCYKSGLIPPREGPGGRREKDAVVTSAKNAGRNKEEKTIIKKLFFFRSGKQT
UniProt Q9NVN3: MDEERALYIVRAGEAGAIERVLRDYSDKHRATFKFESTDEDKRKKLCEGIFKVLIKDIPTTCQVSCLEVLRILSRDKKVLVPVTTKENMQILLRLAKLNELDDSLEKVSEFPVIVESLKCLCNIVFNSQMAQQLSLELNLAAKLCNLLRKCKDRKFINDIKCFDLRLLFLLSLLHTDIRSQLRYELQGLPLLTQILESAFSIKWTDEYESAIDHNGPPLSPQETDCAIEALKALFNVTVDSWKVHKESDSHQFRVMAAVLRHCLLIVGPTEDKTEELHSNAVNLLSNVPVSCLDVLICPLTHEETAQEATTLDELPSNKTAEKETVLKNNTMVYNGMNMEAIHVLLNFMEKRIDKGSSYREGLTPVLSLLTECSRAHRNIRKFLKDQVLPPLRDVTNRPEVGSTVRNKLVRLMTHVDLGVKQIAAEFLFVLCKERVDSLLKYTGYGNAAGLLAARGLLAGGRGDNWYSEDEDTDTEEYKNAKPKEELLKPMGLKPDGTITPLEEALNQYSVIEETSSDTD

Key:
Experiment in all cases: log2 fold change, soluble protein after heating vs DMSO (PISA); higher = thermal stabilisation; K562 cells, 10 uM, 30 min; active = over 0.2 and 3.5 SD of the protein, either way, in both replicates (recomputed)
[1] = compound: CC1=NC(=CC=C1)C2=C(N=C(N2)C(C)(C)C)C3=CC4=NC=CN=C4C=C3
Summary of the method: (§1)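 For each measurement, 10 μM compound was applied for 30 min to K562 cells at 2×10^6 cells/mL. Aliquots were heated for 3 min across 48°C-58°C, pooled, and extracted in PBS with 0.5% NP-40 at 4°C; the supernatant after 21,000xg for 90 min was soluble protein. This was quantified by TMTpro 16plex LC-MS/MS with channel sums equalised, and thermal stability was reported relative to control samples from duplicates, on a log2 fold-change scale.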

Nexturastat A = compound: CCCCN(Cc1ccc(C(=O)NO)cc1)C(=O)Nc1ccccc1 [Nexturastat A]
Summary of the method: as §1

givinostat = compound: CCN(CC)Cc1ccc2cc(COC(=O)Nc3ccc(C(=O)NO)cc3)ccc2c1 [givinostat]
Summary of the method: as §1

[2] = compound: CC1=C(C=C(C=C1)NC(=O)C2=CC(=CC=C2)C(C)(C)C#N)NC3=CC4=C(C=C3)N=CN(C4=O)C
Summary of the method: as §1

[3] = compound: CC1=CC=C(C=C1)SC2=C3C=C(SC3=CN=C2)C(=O)N
Summary of the method: as §1

vemurafenib = compound: CCCS(=O)(=O)Nc1ccc(F)c(C(=O)c2c[nH]c3ncc(-c4ccc(Cl)cc4)cc23)c1F [vemurafenib]
Summary of the method: as §1

[4] = compound: CCCS(=O)(=O)Nc1ccc(F)c(C(=O)c2c[nH]c3ncc(Cl)cc23)c1F
Summary of the method: as §1

barasertib = compound: CCN(CCCOc1ccc2c(Nc3cc(CC(=O)Nc4cccc(F)c4)[nH]n3)ncnc2c1)CCOP(=O)(O)O [barasertib]
Summary of the method: as §1

[5] = compound: CC1=C(C=C(C=C1)NC(=O)C2=CC(=CC=C2)N(C)C)NC(=O)C3=CC=C(C=C3)O
Summary of the method: as §1

[6] = compound: CCCc1cc(C)[nH]c(=O)c1CNC(=O)c1cc(-c2ccnc(N3CCN(C)CC3)c2)cc2c1cnn2C(C)C
Summary of the method: as §1

Measured: log2 fold change

RIT1 isoform 3 (UniProt Q92963)
inactive: [1] 0.08 | Nexturastat A -0.125 | givinostat -0.084

RFWD3 (UniProt Q6PCD5)
inactive: [2] -0.08 | [3] -0.084 | Nexturastat A 0.044 | vemurafenib 0.025 | [4] -0.217 | givinostat -0.056

RNF169 (UniProt Q8NCN4)
inactive: [3] 0.034 | [4] -0.103

Copied from the results shown (two entries):
RIT1 isoform 3 (UniProt Q92963)
inactive: [1] 0.08 | Nexturastat A -0.125 | givinostat -0.084

RFWD3 (UniProt Q6PCD5)
inactive: [2] -0.08 | [3] -0.084 | Nexturastat A 0.044 | vemurafenib 0.025 | [4] -0.217 | givinostat -0.056

Next entries.

RNF13 (UniProt O43567)
inactive: [2] -0.06 | [1] -0.042 | Nexturastat A -0.036 | vemurafenib -0.023 | barasertib -0.006

RMDN2 isoform 2 (UniProt Q96LZ7)
inactive: [5] -0.022 | [1] -0.127 | vemurafenib 0.217 | [6] -0.196

RMI2 (UniProt Q96E14)
inactive: [5] -0.017 | [3] -0.113 | vemurafenib 0.164 | [4] 0.044 | [6] 0.083

RGN (UniProt Q15493)
inactive: [2] 0.049 | [3] 0.17 | vemurafenib -0.072 | [4] -0.168

RBP5 (UniProt P82980)
inactive: [2] -0.068 | [3] -0.063 | [1] 0.02 | Nexturastat A 0.164 | [4] -0.01 | [6] -0.09 | givinostat -0.104 | barasertib 0.047

RBM6 (UniProt P78332)
inactive: [2] -0.009 | [3] -0.056 | [1] 0.092 | [4] 0.031 | [6] -0.079

RNF111 isoform 3 (UniProt Q6ZNA4)
inactive: [1] 0.041 | givinostat 0.115

RINT1 (UniProt Q6NUQ1)
inactive: [5] 0.016 | [3] -0.023 | [1] -0.062 | Nexturastat A 0.164 | vemurafenib -0.013 | [4] 0.068 | [6] 0.281 | givinostat 0.14 | barasertib -0.138

RICTOR isoform 3 (UniProt Q6R327)
inactive: [2] -0.09 | [3] 0.074 | Nexturastat A 0.25 | [4] 0.018 | givinostat -0.057

RNF170 (UniProt Q96K19)
inactive: [5] -0.036 | [3] -0.02 | [1] 0.176 | Nexturastat A -0.064 | vemurafenib 0.094 | [4] -0.106 | [6] 0.047 | barasertib 0

RNF24 isoform 2 (UniProt Q9Y225)
inactive: [5] -0.066 | [3] -0.123 | [1] -0.024 | Nexturastat A -0.097 | vemurafenib -0.119 | [4] -0.296 | givinostat -0.006 | barasertib -0.023

RNF11 (UniProt Q9Y3C5)
inactive: [5] -0.016 | [1] 0.209

RHD (UniProt Q02161)
inactive: [3] 0.031 | [1] -0.075 | [4] -0.1 | givinostat 0.129

RBMY1E (UniProt A6NEQ0)
inactive: [5] 0.009 | [3] 0.183 | [1] 0.075 | [4] 0.082 | [6] -0.023 | givinostat 0.059 | barasertib 0.135

RGCC (UniProt Q9H4X1)
inactive: givinostat -0.027 | barasertib -0.049

RNF130 (UniProt Q86XS8)
inactive: [3] 0 | [1] -0.406 | [4] -0.105 | [6] 0.19 | givinostat -0.046 | barasertib 0.015

RHBDD2 isoform 2 (UniProt Q6NTF9)
inactive: [1] 0.202 | Nexturastat A 0.044 | [6] -0.079 | givinostat -0.027 | barasertib 0.002

RNF138 (UniProt Q8WVD3)
inactive: [2] 0.036 | [3] 0.138 | Nexturastat A -0.082 | vemurafenib 0.086 | [4] 0.042 | [6] 0.048 | givinostat 0.033 | barasertib 0.037

RNF2 (UniProt Q99496)
inactive: [2] 0.155 | [3] 0.051 | [1] 0.022 | Nexturastat A 0.024 | vemurafenib -0.066 | [4] 0.061 | [6] 0.07 | givinostat -0.04 | barasertib -0.002

RC3H2 (UniProt Q9HBD1)
inactive: [3] -0.052 | Nexturastat A 0.053 | [4] 0.022

RFXANK (UniProt O14593)
inactive: Nexturastat A 0.47

RFX3 (UniProt P48380)
inactive: [2] -0.323 | [3] -0.144 | [4] 0.169 | givinostat 0.062 | barasertib 0.239

RHOXF2B (UniProt P0C7M4)
inactive: [2] -0.17 | [3] -0.153 | [4] 0.084

RECQL5 (UniProt O94762)
inactive: vemurafenib 0.005

RILPL2 (UniProt Q969X0)
inactive: Nexturastat A -0.035

RIMKLB (UniProt Q9ULI2)
inactive: [2] 0.077 | [3] 0.012 | [1] 0.12 | Nexturastat A -0.179 | [4] -0.032 | [6] -0.071 | givinostat -0.022 | barasertib 0.068

RCL1 (UniProt Q5VZU2)
inactive: [5] 0.004 | Nexturastat A 0.314

RIC8B isoform 1 (UniProt Q9NVN3)
inactive: [1] -0.005 | Nexturastat A -0.28 | givinostat 0.226

RIPOR1 isoform 4 (UniProt Q6ZS17)
inactive: [5] -0.213 | [1] -0.024 | Nexturastat A 0.066

RC3H1 (UniProt Q5TC82)
inactive: [2] 0.065 | [3] -0.07 | [1] -0.062 | Nexturastat A 0.174 | vemurafenib 0.074 | [4] -0.018 | [6] -0.2 | givinostat -0.013

RNF220 isoform 3 (UniProt Q5VTB9)
inactive: [3] 0.385 | [4] 0.201 | givinostat -0.059
